The labels stand for the following.
T1: myristoylated recombinant bGCAP2, mock-phosphorylation control (unphosphorylated Ca2+-free GCAP2) (bovine (printed only as 'bGCAP2')) (UniProt P51177)
T1 sequence (chain, myristoylated): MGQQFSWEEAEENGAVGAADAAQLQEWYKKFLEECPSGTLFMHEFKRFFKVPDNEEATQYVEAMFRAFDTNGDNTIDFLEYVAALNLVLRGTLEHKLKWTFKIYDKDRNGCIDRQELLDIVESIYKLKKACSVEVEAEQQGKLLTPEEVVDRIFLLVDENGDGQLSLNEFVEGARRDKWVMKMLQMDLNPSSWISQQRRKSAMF

Protein sequences, listed by entry. Tags and fused reporters are not part of them.
UniProt P00442: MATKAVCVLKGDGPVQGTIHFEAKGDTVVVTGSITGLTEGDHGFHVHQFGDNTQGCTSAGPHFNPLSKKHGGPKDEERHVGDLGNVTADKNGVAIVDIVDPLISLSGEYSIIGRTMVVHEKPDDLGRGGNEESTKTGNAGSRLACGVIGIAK
UniProt Q76LV1: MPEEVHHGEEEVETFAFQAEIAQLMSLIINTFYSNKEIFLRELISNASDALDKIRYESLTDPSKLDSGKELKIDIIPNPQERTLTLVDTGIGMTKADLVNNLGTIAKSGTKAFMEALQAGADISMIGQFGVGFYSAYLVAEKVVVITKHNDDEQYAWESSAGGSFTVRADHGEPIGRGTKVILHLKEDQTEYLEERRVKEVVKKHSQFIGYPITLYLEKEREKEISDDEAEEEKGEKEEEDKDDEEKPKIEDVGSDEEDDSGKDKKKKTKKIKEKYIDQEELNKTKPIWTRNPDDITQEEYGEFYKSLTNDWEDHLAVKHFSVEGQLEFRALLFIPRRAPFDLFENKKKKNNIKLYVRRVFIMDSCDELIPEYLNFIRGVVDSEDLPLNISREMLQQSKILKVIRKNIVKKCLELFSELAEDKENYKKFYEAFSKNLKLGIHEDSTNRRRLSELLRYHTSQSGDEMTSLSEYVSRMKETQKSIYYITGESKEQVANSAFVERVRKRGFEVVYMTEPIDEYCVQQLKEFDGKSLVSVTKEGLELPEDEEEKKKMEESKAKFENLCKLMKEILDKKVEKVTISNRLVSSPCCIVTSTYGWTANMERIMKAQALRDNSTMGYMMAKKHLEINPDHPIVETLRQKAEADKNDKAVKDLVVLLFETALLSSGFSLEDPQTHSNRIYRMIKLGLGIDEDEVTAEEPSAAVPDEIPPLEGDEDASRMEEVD

B1: HspB8 (protein, UniProt Q5EAC9 1-196)
chain: MADGQMPFPCHYTSRRRRDPFRDSPLSSRLLDDGFGMDPFPDDLTASWPDWALPRLSSAWPGTLRSGMVPRGPTAMTRFGVPAEGRSPPPFPGEPWKVCVNVHSFKPEELMVKTKDGYVEVSGKHEEKQQEGGIVSKNFTKKIQLPAEVDPVTVFASLSPEGLLIIEAPQVPPYSPFGESSFNNELPQDGQEVTCT
B2: peroxiredoxin-6 (enzyme, UniProt O77834 1-224)
chain: MPGGLLLGDEAPNFEANTTIGRIRFHDYLGDSWGILFSHPRDFTPVCTTELGRAAKLAPEFAKRNVKMIALSIDSVEDHLAWSKDINAYNGEEPTEKLPFPIIDDKNRDLAIQLGMLDPAEKDEKGMPVTARVVFIFGPDKKLKLSILYPATTGRNFDEILRVIISLQLTAEKRVATPVDWKNGDSVMVLPTIPEEEAKKLFPKGVFTKELPSGKKYLRYTPQP

No constants are given. Whether binding was seen depends on the method and setting. In cells and extracts the contact can be indirect. Here binding means that the protein was enriched with, or labelled near, the bait; the list need not be complete.

The test concerns the target T1, myristoylated recombinant bGCAP2, mock-phosphorylation control (unphosphorylated Ca2+-free GCAP2) (bovine (printed only as 'bGCAP2')). Kind of test: affinity purification with mass spectrometry; GCAP2 or GCAP2-P covalently linked to Epoxi-magnetic beads, incubated 1 h at room temperature with bovine retinal homogenate in 10 mM HEPES, 135 mM NaCl, 5 mM KCl, 1% Triton X-100, 4 mM EGTA, 2 mM EDTA, pH 7.4; eluted with 0.2 M glycine pH 2.5; LC-MS/MS, label-free (NSAF) comparison of GCAP2-P with GCAP2, three replicates; only the target purified.
“superoxide dismutase 1 (from UniProt P00442 1-152) (enzyme)”: the binding result was “binds”.
On to HSP90α (from UniProt Q76LV2 1-733), for which the binding result is recorded as “binds”.
On to HSP90β (from UniProt Q76LV1 1-724), for which the binding entry is on record as “binds”.
The value for B1 was “binds”; that for B2 was “binds”.

The record behind these values is publication PMC6981271.
